Measured values taken from PubChem BioAssay AID720504 (National Center for Advancing Translational Sciences (NCATS), 2013).
In all, about 360,000 compounds went through this assay and about 10,000 (2.8%) were called active. Inconclusive results, whose numbers are uncertain, are shown with a selection of clear calls. The call rests on the fitted dose curve; in most records, active means well fitted inhibition curve with a large enough effect; inconclusive means small, poorly fitted or top-dose-only effect; inactive means flat fitted curve, though single readings scatter. Where the call is inconclusive, the potency comes from a doubtful curve fit.

By UniProt entry, the sequences of proteins in these tests, tags left out.
UniProt P53350, whole entry, looked up: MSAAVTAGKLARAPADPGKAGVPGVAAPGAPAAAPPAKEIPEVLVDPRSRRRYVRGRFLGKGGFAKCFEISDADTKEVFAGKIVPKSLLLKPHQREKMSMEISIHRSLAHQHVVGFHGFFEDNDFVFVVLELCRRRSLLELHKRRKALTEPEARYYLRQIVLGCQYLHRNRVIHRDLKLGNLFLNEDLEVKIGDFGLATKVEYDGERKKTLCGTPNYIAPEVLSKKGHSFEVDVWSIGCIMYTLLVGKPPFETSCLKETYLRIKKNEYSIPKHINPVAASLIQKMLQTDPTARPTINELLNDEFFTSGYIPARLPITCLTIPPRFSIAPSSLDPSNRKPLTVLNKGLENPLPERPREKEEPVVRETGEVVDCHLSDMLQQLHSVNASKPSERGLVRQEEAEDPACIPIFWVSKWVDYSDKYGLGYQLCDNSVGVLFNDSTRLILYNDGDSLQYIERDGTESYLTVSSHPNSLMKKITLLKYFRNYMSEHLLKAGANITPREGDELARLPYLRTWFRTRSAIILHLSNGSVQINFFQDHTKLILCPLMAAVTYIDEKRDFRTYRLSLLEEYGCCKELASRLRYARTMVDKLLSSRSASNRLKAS

Target: Serine/threonine-protein kinase PLK1 (Homo sapiens) (UniProt P53350)
Assay: qHTS for Inhibitors of PLK1-PDB (polo-like kinase 1 - polo-box domain): Primary Screen; further: nearly all actives have a fitted effect of over 65% in size; on max response, negative = inhibition: series mostly up to about 57 µM
Details: Plk1 PBD binding of FITC phosphopeptide, fluorescence polarization
On the % scale 0 is the no-effect control and ±100 the full control effect; potency means the concentration at half of the fitted maximal effect.

| SMILES | max response, negative = inhibition | Potency |
| --- | --- | --- |
| CC(=O)c1c(C)oc2ccc(N(C(C)=O)S(=O)(=O)c3ccc(Br)cc3)cc12 | inactive: -9.13% | – |
| CC1=C(C)CS(=O)N(S(=O)(=O)c2ccccc2)C1 (stereo not given) | – | active: 1.5 µM |
| COC(=O)c1c(C)[nH]c(C(=O)C(C)OC(=O)C2CC(=O)N(CCc3ccccc3)C2)c1C (stereo not given) | inactive: -20.3% | – |
| CN1CCN(S(=O)(=O)c2cccc(C(=O)Oc3ccc(Br)cc3F)c2)CC1 | – | inconclusive: 26.7 µM [inhibitor, partial curve] |
| CC(C)C(c1nnnn1C1CCCCC1)N1CCCc2ccccc21 (stereo not given) | – | inconclusive: 26.7 µM [inhibitor, single point] |
| O=C(Oc1ccc2c(c1)OCC2=O)c1ccc(Cl)cc1 | inactive: -12% | – |
| O=C(Nc1ccc(S(=O)(=O)Nc2cnc3ccccc3n2)cc1)c1ccc([N+](=O)[O-])cc1Cl | – | inconclusive: 67 µM [inhibitor, partial curve] |
| CC1CCN(S(=O)(=O)N2CCCC(C(=O)NCc3ccc(F)cc3)C2)CC1 (stereo not given) | – | active: 26.7 µM |
| O=C(NCc1n[nH]c(=S)n1Cc1ccccc1)c1ccccc1 | – | inconclusive: 26.7 µM [inhibitor, single point] |
| CC12CCC(C(=O)NCCCn3ccnc3)(OC1=O)C2(C)C (stereo not given) | inconclusive: -32.7% [inhibitor] | – |
| CCCCCCn1c(Br)nc2c1c(=O)n(C)c(=O)n2C | – | inconclusive: 18.9 µM [inhibitor, partial curve] |
| CCCSc1ccc([C@@H]2[C@H]3C(=O)N(CC)C(=O)[C@H]3[C@]3(C(=O)OC)CCCCN23)cc1 | inactive: 3.16% | – |
| CCOC(=O)C1=C(C)NC(=O)NC1C1CC=CCC1 (stereo not given) | – | inconclusive: 29.9 µM [inhibitor, partial curve] |
| Cc1ccc(C)c(SCC(=O)Nc2cc(S(=O)(=O)N3CCOCC3)ccc2C)c1 | – | inconclusive: 23.8 µM [inhibitor, single point] |
| CC(C)c1c(C(=O)N/N=C/c2ccccc2OCc2c(F)cccc2Cl)nnn1-c1nonc1N | – | inconclusive: 26.7 µM [inhibitor, single point] |
| O=C(O)CCC(=O)Nc1sc2c(c1C(=O)Nc1ccccc1)CCCCC2 | – | inconclusive: 26.7 µM [inhibitor, partial curve] |
| O=[N+]([O-])c1c(NCCCO)cc(SCc2ccco2)c2nonc12 | inconclusive: -30.5% [inhibitor] | – |
| CCC(=O)NNC(=O)CCC(=O)Nc1ccc(C)cc1C | – | active: 23.8 µM |
| O=[N+]([O-])c1ccc(CNC2CCCc3ccccc32)cc1 (stereo not given) | inactive: -14.8% | – |
| N#CC(c1nc2ccccc2nc1N1CCCC1)S(=O)(=O)c1cccs1 (stereo not given) | – | inconclusive: 23.8 µM [inhibitor, partial curve] |
| O=C(Nc1ccc2c(c1)CCCN2C(=O)c1cccs1)c1ccccc1 | – | active: 21.2 µM |
| Cc1cc(N/N=C/c2ccncc2)nc2ccccc12 | – | inconclusive: 4.74 µM [inhibitor, single point] |
| Cc1cccc2nc(CSc3nc4cc([N+](=O)[O-])ccc4s3)cn12 | inactive: -17.1% | – |
| CC(C)(C)c1ccc(OC(=O)Cn2c(C(F)(F)F)nc3ccccc32)cc1 | – | inconclusive: 37.7 µM [inhibitor, single point] |

| SMILES | max response, negative = inhibition | Potency |
| --- | --- | --- |
| CCN(CC(=O)Nc1c(F)cccc1F)C(=O)c1ccc(N2CCCC2)c([N+](=O)[O-])c1 | inactive: -6.39% | – |
| CCn1c(-c2cc(C3CC3)nc3ccccc23)n[nH]c1=S | inactive: -23.4% | – |
| COCCNC(=O)C(=O)NNS(=O)(=O)c1ccc2ccccc2c1 | – | active: 18.9 µM |
| CSc1nnc(C(C)c2ncc(C(F)(F)F)cc2Cl)n1C (stereo not given) | – | inconclusive: 23.8 µM [inhibitor, single point] |
| O=C(CSc1cnc2ccccc2n1)c1ccc(F)cc1 | – | inconclusive: 21.2 µM [inhibitor, partial curve] |
| CC1=C(O)C(=O)C(c2c(C)cc(C)c(Br)c2C)=C(O)C1=O | – | inconclusive: 26.7 µM [inhibitor, single point] |
| Cc1ccc(NCc2nnc(SCC(=O)Nc3cccc(O)c3)n2CC2CCCO2)c(C)c1 (stereo not given) | inactive: 1.5% | – |
| Cc1ccc(F)cc1NC(=O)CSCc1nc2sc(C)c(C)c2c(=O)[nH]1 | – | inconclusive: 33.6 µM [inhibitor, partial curve, poor fit] |
| Cc1ccc(S(=O)(=O)Nc2nc3ccccc3s2)cc1[N+](=O)[O-] | inconclusive: -30.4% [inhibitor] | – |
| Cc1c(CCO)c(=O)n(-c2ccccc2)n1S(=O)(=O)c1ccc([N+](=O)[O-])cc1 | – | inconclusive: 37.7 µM [inhibitor, single point] |
| COc1ccc(C(C)=O)cc1COC(=O)CNC(=O)c1ccc(Cl)cc1 | – | inconclusive: 26.7 µM [inhibitor, single point] |
| CC1=NN(C(N)=S)C(=O)C1N=Nc1ccccc1[N+](=O)[O-] (stereo not given) | – | inconclusive: 33.6 µM [inhibitor, partial curve] |
| [O-]/C(=C(\C(=S)Nc1cccc2ccccc12)[n+]1ccccc1)c1ccc2c(c1)OCCO2 | – | inconclusive: 23.8 µM [inhibitor, partial curve] |
| Cc1cnc(CN2CCCC(C(=O)c3ccc4c5c(cccc35)CC4)C2)[nH]1 (stereo not given) | inactive: -9.57% | – |
| C=CCn1c(-c2c(C)nc3cc(C)ccn23)n[nH]c1=S | inactive: -8.12% | – |
| Cc1ccc(C)n1-c1ccc(N2CCOCC2)cc1 | inactive: -8.12% | – |
| CCOC(=O)CSc1nnc(NC(=O)CN2CCCCC2)s1 | – | active: 26.7 µM |
| Cc1ccccc1NC(=O)N1c2ccccc2CC1C (stereo not given) | – | inconclusive: 4.23 µM [inhibitor, full curve] |
| Cc1cc(SCNC(=O)c2ccccc2)nc(C(C)C)n1 | – | active: 23.8 µM |
| O=Cc1ccc(OC(=O)c2cc(Cl)nc3ccccc23)cc1 | – | inconclusive: 5.97 µM [inhibitor, partial curve] |
| COc1ccccc1Nc1nc(NCC2CCCO2)c2ccccc2n1 (stereo not given) | – | inconclusive: 23.8 µM [inhibitor, single point] |
| COc1ccc(NC(=S)N(CCCN2CCOCC2)Cc2cn(C)c3ccccc23)cc1OC | – | inconclusive: 23.8 µM [inhibitor, partial curve] |
| COc1ccc(-n2c(Cc3cccn3C)nnc2SCC(=O)NCc2ccco2)cc1 | – | inconclusive: 23.8 µM [inhibitor, single point] |
| CCOc1ccc(NC(=S)N2CCN(C/C=C/c3ccccc3)CC2)cc1 | – | inconclusive: 21.2 µM [inhibitor, single point] |

| SMILES | max response, negative = inhibition | Potency |
| --- | --- | --- |
| O=C(/C=C\c1ccco1)NC(=S)Nc1ccccc1O | – | inconclusive: 21.2 µM [inhibitor, partial curve] |
| NC(=O)c1ccc(N2CCOCC2)nc1 | – | inconclusive: 8.44 µM [inhibitor, single point] |
| O=C(Nc1ccc2c(c1)CCCN2C(=O)c1cccs1)c1cccc(F)c1 | – | inconclusive: 26.7 µM [inhibitor, single point] |
| CCN(CC)CCCNCC(=O)Nc1ccc2c(c1)CCC2 | inactive: -2.21% | – |
| Cc1cccc(C)c1NC(=S)NC(=O)c1ccc(Br)o1 | – | active: 5.97 µM |
| CC(C)OC(=S)N/C(=N\S(=O)(=O)c1ccccc1)c1ccccc1 | – | inconclusive: 26.7 µM [inhibitor, single point] |
| O=C(Cn1cc(COc2ccc3ccc(=O)oc3c2)nn1)c1ccc(O)cc1 | inactive: -2.2% | – |
| CCc1nnc(NC(=O)CSc2nnc(CNc3ccc(OC)cc3)n2CC)s1 | – | inconclusive: 6.7 µM [inhibitor, single point] |
| Cc1cccc(N2CC(C(=O)Nc3nnc(SCCC4OCCO4)s3)CC2=O)c1 (stereo not given) | – | inconclusive: 26.7 µM [inhibitor, partial curve] |
| CCOc1ccccc1NC(=O)c1nc(S(=O)(=O)Cc2cccc(C)c2)ncc1Cl | – | inconclusive: 9.47 µM [inhibitor, partial curve] |
| CCCCCCN1C=CC=C/C1=C/C=C(C#N)C#N | – | inconclusive: 37.7 µM [inhibitor, single point] |
| CC(C)(C)C(=O)[C@@H]1[C@@H]2C(=O)N(c3ccc4c(c3)OCCO4)C(=O)[C@@H]2C2c3ccccc3C=CN21 (stereo not given in full) | – | active: 10.6 µM |
| COc1ccc(CC(=O)NCC2CCCN(Cc3cccc(SC)c3)C2)cc1 (stereo not given) | – | inconclusive: 29.9 µM [inhibitor, partial curve] |
| COC(=O)c1ccc(NC(=O)CSc2nncn2-c2ccccn2)cc1 | – | inconclusive: 21.2 µM [inhibitor, partial curve] |
| COC(=O)c1nn(-c2nc(-c3cccc(OC)c3)cc(C(F)(F)F)n2)cc1[N+](=O)[O-] | inactive: -14.2% | – |
| Oc1cc2c(cc1CN1CCc3ccccc3C1)OCO2 | – | inconclusive: 29.9 µM [inhibitor, partial curve] |
| CC(C)CN1CCC(=O)N([C@H](CSc2ccccc2)Cc2ccccc2)CC1 | – | active: 21.2 µM |
| Cc1ccc(-n2c(O)c(C=Nc3ccccc3-c3n[nH]c(=S)[nH]c3=O)c3ccccc3c2=O)cc1C | – | active: 29.9 µM |
| O=C(NC1c2ccccc2-c2ccccc21)N1CCOCC1 | – | inconclusive: 37.7 µM [inhibitor, single point] |
| NCCSSCCN | – | inconclusive: 5.32 µM [inhibitor, partial curve] |
| OC(CN1C2=NCCN2c2ccccc21)c1ccc2c(c1)OCO2 (stereo not given) | inactive: -9% | – |
| CC(Sc1n[nH]c(=O)[nH]c1=O)C(=O)OCc1ccccc1 (stereo not given) | – | inconclusive: 26.7 µM [inhibitor, partial curve] |

Part of the list above in another layout:
SMILES	max response, negative = inhibition	Potency
CC1CCN(S(=O)(=O)N2CCCC(C(=O)NCc3ccc(F)cc3)C2)CC1 (stereo not given)	–	active: 26.7 µM
O=C(NCc1n[nH]c(=S)n1Cc1ccccc1)c1ccccc1	–	inconclusive: 26.7 µM [inhibitor, single point]
CC12CCC(C(=O)NCCCn3ccnc3)(OC1=O)C2(C)C (stereo not given)	inconclusive: -32.7% [inhibitor]	–
